In paper doi:10.1101/2021.02.12.430913:
These are yes or no findings as the source states them, for the method shown. In cells and extracts the contact can be indirect. These calls come from enrichment with a bait or labelling near it, and not all partners need be listed.

Amino acid sequences for entries named in this document (tags omitted). A change or cut given only in a name is not applied to a line headed by its entry.
UniProt Q562E2: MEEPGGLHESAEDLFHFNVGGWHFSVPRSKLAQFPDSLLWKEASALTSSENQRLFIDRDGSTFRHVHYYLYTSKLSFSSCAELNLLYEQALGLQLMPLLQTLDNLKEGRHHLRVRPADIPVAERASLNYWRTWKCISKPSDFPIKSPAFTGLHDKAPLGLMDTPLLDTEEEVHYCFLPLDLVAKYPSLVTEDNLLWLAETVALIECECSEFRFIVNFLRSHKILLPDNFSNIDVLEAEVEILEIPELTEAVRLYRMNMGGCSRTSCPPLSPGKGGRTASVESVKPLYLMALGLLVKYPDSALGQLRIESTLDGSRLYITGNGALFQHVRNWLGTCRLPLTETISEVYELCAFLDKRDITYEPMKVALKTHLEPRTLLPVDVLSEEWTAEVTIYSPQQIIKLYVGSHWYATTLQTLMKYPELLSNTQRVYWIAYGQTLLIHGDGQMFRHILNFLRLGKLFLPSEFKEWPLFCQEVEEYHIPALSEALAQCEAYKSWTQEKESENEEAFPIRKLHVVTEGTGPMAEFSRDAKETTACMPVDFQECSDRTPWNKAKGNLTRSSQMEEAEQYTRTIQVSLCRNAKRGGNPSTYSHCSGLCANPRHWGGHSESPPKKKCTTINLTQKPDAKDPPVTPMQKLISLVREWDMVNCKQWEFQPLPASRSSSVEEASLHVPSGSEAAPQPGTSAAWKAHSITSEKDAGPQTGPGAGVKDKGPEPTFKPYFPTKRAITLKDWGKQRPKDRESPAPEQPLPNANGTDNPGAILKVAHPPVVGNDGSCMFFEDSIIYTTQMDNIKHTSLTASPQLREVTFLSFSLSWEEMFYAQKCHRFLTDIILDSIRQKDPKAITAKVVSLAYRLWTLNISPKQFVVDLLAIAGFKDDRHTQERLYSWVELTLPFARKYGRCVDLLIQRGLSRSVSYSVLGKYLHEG
UniProt Q80TT8: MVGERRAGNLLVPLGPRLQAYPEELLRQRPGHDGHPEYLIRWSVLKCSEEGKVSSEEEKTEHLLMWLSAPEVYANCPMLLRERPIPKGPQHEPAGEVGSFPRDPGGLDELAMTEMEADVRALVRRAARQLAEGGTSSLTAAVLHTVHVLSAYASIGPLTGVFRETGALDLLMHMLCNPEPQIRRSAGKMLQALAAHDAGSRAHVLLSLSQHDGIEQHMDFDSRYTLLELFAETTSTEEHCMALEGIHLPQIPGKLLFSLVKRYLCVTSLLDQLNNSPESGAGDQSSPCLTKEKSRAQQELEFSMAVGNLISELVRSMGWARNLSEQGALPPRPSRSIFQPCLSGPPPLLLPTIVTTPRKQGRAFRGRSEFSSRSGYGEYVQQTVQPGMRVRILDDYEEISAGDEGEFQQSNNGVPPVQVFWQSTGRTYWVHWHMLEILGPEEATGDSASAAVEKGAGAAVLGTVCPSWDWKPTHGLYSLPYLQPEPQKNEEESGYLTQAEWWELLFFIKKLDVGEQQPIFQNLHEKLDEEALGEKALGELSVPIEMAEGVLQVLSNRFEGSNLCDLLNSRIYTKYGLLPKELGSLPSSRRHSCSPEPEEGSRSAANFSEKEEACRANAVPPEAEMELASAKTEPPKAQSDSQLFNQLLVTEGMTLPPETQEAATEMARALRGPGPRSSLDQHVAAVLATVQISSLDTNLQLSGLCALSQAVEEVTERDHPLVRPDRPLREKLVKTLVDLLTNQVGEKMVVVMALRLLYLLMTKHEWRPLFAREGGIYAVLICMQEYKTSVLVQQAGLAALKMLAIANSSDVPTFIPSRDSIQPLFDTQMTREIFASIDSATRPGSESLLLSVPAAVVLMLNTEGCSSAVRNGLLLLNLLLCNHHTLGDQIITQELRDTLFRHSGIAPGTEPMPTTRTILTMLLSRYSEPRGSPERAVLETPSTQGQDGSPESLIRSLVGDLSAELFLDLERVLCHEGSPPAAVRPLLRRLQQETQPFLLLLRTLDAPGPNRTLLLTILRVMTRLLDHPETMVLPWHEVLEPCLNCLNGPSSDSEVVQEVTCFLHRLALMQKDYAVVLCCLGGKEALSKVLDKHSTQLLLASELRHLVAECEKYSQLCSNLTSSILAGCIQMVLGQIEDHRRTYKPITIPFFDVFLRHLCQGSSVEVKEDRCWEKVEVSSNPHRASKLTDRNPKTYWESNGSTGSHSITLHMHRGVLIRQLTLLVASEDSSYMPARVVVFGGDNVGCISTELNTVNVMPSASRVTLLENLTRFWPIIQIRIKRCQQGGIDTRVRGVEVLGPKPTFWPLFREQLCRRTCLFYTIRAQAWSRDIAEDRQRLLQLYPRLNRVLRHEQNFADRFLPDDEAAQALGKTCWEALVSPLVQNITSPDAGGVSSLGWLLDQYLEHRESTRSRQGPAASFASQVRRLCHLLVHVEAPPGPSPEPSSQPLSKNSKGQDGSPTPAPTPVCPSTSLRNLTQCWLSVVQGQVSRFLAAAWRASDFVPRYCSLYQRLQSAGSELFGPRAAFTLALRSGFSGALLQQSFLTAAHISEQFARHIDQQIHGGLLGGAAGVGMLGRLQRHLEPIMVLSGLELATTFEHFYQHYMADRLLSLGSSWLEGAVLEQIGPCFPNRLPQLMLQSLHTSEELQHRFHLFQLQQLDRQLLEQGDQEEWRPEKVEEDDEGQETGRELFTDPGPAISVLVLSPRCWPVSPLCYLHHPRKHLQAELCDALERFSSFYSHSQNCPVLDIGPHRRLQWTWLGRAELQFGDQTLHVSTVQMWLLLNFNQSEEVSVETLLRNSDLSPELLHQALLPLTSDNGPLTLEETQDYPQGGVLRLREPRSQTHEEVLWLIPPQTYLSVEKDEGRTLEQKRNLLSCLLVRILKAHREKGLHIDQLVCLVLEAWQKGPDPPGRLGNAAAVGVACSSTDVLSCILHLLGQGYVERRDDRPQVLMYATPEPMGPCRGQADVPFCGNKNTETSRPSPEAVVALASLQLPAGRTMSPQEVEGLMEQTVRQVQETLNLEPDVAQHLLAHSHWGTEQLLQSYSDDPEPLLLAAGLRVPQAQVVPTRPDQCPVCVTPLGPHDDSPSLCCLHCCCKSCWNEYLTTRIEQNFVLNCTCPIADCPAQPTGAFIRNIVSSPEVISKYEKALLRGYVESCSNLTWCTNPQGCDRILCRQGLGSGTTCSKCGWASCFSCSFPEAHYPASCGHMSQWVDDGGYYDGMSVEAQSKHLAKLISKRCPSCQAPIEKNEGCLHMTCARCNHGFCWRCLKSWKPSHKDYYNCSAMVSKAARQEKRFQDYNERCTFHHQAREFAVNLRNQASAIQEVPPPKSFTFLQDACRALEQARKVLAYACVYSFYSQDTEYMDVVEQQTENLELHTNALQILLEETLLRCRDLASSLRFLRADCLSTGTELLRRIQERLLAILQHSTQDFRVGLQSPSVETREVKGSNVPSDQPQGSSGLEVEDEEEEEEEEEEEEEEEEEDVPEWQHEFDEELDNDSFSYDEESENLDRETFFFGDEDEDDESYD
UniProt O09106: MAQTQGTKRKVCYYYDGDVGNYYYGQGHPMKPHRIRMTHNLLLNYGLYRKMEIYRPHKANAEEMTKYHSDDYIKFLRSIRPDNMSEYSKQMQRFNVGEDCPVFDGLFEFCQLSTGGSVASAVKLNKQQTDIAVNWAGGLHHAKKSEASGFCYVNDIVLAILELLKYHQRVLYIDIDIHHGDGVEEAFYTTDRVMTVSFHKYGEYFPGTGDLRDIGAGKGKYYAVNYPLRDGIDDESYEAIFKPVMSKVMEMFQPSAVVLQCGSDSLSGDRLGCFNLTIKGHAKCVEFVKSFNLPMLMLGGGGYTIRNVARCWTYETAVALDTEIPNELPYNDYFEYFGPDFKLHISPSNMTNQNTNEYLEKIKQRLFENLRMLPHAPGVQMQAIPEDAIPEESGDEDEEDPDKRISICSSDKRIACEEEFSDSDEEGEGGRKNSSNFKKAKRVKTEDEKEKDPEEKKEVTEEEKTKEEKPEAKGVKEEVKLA

B1: zinc finger protein 541 (ZFP541) (protein, UniProt Q0GGX2-1 1-1363)
chain: MEPYSLGEEGALPSEGHLPSFSESQVLNCSDTLNRDLGPSTRDLLYAGLSGLDLDPSLSTSDMPSEVLEDNLDTLSLYSGKDSDSVKLLEEYADSESQTSLQDLGLGALKVPKEADEGGRATGSTRKGKRQHSSPQNPLLDCSLCGKVFSSASSLSKHYLTHSQERKHVCKVCSKAFKRQDHLTGHMLTHQKTKPFVCIEQGCSKSYCDYRSLRRHYEVQHGVCILKETPPEEEAYGDPTHNHDVANQPPPSGLRSLGPPEARSPGSVLPNRDLLRCIVSSIVHQKIPSPGPAVGPSDTEARSSACACPTSLGSSSCTPASTPVALGTLGSEIPEETHPPRKEAATEVFTPVQSRAAENGVPDPPESELESESPRLQRPSSLEGWPEGSSLPACLPLFRGHSVPSGSQPSSHNFQWLRNLPGCPKNKGSNVFMVHKPPAVASREGSEGGGSGPSSTPTSVEPSPSLGTTQEELLPFPPALLKAPGEASSEVRQAAGEDETWAPKKCKPDCESFPWQSPTELGLQDAQNPGGLPSDATPLFRQLFMKSQESLVSHEQMQVLQMIAKSQRIFSHTQVATASAQRPGPEGKQSTLKPLQGPWPPQTLPPAPTVDSFQIGPGHSEPEGSPVRRRKTMPAVSRETSPGGPRRDTKGGPKVASAPPSLTGPGLLPSRNPDSSSLAKGTLDLGDIIPNAGSRQSQLGGDEPAGTQLVGKQGQGENGLASGAMRGEKGPACPRGGGYRLFSGHPRAQRFSGFRKEKVKMDVCCAASPSQVAMASFSSAGPLADPPRDMKSKLTIFNRIQGGNIYRLPHPVKEESLAGGCHQPNGGPTDWMESKSTFVCKNCSQMFYTEKGLSSHMCFHSDQWPSPRGKQEQQVKGQMVASVKRKAGREEGAVEDMKRHYDCSSSEPQDVTILSMLVSSGSCGVTPVVLSSLLQGQEKDGEERDSKESCQYRKRKKRPQPKALFAPPAPSALGEPGPGGCHQSCLHSPVFLVDHLLKGLFQCSPYTPPPMLSPIREGSGLYFNTLCSTSRAGPHLISPVLDQVDSSFGICVVKDDTKISIEPHINVGSRFQAEIPELQERLLARVDENVASLVWKPWGDVMTNPETQDRVMELCNVACSSVMPGGGTNLELALHCLHDAQGSVQVALETLLLRGPQKPRTHPLADYRYTGSDIWTPMEKRLFKKAFCAHKKDFYLIHKMIQTKSVAQCVEYYYIWKKMVKFDCGRAPGLEKRGRRELDEVERTEDKVTCSPRERPTHRPTPELKIKTKSYRRESILHSSPSAAPKRTPEPPGSVESQGVFPCRECERVFDKIKSRNAHMKRHRLQEHVEPVRVKWPVKPYPLKEEEEEEEEELGADMGPLQW
B2: DNTTIP1 (protein, UniProt Q99LB0 1-328)
chain: MGATGDTEQPRGPGGAERGGLELGDAGAAGQPVLTNPWNIMIKHRQVQRRGRRSQMTTSFTDPAISMDLLRAVLQPSINEEIQGVFNKYMKFFQKAALNVRDNVGEEVDAEQLIQEACRSCLEQAKLLFSDGEKVIPRLAHELPGIKRGRQAEEESHRGSPIPKKRKGRPPGHVLSNDRAAAGMVWKQKSCEPIRREGPKWDPARLNESTTFVLGSRANKALGMGGTRGRIYIKHPHLFKYAADPQDKHWLAEQHHMRATGGKMAYLLIEEDIRDLAASDDYRGCLDLKLEELKSFVLPSWMVEKMRKYMETLRTENEHRAAEAPPQT

Target: potassium channel tetramerization domain containing 19 (KCTD19) (mouse (endogenous in testis)) (UniProt Q562E2)
Assay: affinity purification with mass spectrometry

| Molecule | binding |
| --- | --- |
| CUL9 (from UniProt Q80TT8 1-2530) | binds |
| histone deacetylase 1 (HDAC1) (from UniProt O09106 1-482) | binds |
| B1 | binds |
| B2 | binds |
